The values below come from article PMC10899660, “Global fungal-host interactome mapping identifies host targets of candidalysin” (Nature Communications, 2024).

Sequences of proteins named here, by UniProt entry; tags and fusion partners are left off. Residues count along the entry.
Ece1-II peptide, Gal4 activation domain fusion (Q07730, residues 32-61): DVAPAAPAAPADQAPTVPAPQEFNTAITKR
Ece1-IV peptide, Gal4 activation domain fusion (Q07730, residues 94-126): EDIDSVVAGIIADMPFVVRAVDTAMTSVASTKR
Ece1-V peptide, Gal4 activation domain fusion (Q07730, residues 127-160): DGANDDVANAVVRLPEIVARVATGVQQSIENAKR
Ece1-VI peptide, Gal4 activation domain fusion (Q07730, residues 161-194): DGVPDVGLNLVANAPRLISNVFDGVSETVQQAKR
Ece1-VII peptide, Gal4 activation domain fusion (Q07730, residues 195-228): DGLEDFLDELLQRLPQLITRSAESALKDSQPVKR
Ece1-VIII peptide, Gal4 activation domain fusion (Q07730, residues 229-271): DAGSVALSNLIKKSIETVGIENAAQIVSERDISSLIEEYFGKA
UniProt P51946: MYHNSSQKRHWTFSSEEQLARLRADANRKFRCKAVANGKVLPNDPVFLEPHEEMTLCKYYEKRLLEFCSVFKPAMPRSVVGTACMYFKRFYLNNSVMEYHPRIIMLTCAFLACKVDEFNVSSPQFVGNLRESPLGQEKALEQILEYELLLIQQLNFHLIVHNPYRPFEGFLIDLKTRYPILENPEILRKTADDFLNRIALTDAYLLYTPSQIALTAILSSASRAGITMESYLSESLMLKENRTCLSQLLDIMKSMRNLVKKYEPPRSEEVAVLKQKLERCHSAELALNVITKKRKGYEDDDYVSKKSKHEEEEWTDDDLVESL
UniProt Q96AP0: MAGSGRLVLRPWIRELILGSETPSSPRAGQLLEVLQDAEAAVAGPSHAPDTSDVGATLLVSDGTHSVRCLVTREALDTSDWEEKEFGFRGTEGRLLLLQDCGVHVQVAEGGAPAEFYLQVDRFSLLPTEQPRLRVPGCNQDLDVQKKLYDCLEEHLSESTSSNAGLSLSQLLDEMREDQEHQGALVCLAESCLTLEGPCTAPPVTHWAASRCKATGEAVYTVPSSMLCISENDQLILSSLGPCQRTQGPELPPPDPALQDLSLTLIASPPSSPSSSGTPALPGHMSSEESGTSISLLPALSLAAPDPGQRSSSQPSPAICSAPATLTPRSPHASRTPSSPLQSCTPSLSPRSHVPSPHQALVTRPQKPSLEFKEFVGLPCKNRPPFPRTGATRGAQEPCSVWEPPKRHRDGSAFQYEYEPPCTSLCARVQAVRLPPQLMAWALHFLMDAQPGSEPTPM
UniProt O75019: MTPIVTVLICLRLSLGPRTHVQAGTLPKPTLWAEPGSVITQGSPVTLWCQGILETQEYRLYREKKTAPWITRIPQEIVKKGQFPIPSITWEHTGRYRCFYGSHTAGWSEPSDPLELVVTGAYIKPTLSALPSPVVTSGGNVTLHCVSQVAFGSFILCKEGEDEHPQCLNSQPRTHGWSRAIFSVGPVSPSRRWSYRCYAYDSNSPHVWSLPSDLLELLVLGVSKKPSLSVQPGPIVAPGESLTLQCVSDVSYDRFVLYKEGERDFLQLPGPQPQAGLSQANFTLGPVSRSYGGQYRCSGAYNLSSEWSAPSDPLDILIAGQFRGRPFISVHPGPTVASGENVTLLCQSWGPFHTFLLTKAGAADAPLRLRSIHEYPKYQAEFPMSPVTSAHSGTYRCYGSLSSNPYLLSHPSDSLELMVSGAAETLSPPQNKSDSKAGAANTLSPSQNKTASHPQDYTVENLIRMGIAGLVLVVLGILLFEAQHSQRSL
UniProt Q8N149: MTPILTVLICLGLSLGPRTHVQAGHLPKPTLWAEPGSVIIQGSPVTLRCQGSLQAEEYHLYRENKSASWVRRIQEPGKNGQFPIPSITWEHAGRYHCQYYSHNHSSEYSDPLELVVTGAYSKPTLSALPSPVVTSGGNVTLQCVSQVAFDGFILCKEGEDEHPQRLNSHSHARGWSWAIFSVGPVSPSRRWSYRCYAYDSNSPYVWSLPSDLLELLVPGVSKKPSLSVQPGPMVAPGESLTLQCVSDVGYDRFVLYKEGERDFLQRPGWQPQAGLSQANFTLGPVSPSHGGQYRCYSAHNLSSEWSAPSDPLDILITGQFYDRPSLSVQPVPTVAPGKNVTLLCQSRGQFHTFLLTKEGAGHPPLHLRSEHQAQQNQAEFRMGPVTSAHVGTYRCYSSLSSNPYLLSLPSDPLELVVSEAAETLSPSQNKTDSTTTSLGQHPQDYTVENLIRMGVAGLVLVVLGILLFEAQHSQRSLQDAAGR
UniProt Q8N6C8: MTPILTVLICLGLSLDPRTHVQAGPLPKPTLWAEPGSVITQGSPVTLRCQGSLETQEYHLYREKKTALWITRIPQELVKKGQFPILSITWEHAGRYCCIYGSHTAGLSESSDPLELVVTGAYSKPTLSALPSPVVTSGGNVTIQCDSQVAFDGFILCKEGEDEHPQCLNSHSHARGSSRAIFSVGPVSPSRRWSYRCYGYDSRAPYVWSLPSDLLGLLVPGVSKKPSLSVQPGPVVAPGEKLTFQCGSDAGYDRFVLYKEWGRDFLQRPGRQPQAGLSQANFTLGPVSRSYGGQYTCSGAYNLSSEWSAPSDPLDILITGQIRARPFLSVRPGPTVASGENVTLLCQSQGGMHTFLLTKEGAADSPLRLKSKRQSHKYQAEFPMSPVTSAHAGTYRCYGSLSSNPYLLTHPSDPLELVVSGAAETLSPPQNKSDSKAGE
UniProt Q8NHL6: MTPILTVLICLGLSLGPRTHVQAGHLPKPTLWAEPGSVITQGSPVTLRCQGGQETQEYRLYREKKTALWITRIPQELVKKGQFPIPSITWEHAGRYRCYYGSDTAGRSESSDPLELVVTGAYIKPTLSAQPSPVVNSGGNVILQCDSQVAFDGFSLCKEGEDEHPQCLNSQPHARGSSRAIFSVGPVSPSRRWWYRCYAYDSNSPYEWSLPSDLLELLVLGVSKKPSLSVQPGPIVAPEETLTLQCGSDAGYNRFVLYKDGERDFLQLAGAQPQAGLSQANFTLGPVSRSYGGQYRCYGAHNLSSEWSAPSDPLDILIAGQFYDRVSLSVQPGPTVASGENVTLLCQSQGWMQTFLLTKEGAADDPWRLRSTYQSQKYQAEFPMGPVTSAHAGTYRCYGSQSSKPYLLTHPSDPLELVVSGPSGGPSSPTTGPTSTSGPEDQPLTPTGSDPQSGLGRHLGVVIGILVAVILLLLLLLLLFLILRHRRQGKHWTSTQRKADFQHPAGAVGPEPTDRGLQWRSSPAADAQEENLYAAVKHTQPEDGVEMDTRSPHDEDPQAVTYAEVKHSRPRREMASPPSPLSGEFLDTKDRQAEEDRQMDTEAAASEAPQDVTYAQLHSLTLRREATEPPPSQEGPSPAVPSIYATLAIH
UniProt Q8N423: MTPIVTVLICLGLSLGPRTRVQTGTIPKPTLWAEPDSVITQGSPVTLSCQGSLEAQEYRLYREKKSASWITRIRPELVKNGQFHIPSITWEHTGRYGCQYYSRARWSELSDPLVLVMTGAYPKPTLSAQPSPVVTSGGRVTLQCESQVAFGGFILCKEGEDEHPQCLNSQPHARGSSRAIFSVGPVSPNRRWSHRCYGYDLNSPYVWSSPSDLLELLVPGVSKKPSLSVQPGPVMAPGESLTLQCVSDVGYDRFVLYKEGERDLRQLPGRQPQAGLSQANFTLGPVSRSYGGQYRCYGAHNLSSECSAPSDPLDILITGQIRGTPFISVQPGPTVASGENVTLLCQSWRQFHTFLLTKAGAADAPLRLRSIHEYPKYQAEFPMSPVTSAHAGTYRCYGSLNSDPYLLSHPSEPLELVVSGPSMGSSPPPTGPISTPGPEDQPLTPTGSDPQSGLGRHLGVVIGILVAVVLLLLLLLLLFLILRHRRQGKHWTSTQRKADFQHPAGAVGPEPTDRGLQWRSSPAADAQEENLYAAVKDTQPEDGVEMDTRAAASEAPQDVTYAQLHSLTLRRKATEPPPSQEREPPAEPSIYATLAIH
UniProt O75022: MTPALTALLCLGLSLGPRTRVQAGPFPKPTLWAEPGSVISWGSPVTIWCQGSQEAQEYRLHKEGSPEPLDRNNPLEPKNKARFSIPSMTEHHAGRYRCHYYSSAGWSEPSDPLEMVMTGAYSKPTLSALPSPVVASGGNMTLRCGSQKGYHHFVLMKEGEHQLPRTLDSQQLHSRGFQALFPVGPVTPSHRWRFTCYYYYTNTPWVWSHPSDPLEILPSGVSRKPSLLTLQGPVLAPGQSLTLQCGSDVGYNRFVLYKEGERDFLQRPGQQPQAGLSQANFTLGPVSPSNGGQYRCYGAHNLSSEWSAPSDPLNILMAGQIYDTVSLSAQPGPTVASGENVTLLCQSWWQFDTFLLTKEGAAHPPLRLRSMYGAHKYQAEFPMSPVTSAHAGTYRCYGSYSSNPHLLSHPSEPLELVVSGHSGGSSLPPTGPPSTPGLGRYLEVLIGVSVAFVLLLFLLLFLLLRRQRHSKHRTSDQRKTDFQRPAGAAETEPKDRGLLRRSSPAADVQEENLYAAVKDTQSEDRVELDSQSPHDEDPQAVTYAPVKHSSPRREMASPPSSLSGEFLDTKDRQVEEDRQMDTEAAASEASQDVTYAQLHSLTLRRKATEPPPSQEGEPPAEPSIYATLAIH
UniProt Q8NHJ6: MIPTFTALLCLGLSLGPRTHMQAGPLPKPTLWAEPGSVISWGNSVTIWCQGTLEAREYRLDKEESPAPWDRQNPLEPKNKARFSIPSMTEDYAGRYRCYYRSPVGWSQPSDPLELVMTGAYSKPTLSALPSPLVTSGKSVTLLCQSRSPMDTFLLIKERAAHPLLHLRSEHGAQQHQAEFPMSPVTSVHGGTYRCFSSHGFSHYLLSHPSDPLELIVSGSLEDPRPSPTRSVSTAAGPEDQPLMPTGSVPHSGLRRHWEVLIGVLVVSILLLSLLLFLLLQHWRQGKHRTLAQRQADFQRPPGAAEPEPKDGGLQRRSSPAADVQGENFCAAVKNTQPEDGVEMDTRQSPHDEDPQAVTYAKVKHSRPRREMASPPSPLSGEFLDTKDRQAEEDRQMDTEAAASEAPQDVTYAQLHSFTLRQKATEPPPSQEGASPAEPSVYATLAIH
UniProt O75023: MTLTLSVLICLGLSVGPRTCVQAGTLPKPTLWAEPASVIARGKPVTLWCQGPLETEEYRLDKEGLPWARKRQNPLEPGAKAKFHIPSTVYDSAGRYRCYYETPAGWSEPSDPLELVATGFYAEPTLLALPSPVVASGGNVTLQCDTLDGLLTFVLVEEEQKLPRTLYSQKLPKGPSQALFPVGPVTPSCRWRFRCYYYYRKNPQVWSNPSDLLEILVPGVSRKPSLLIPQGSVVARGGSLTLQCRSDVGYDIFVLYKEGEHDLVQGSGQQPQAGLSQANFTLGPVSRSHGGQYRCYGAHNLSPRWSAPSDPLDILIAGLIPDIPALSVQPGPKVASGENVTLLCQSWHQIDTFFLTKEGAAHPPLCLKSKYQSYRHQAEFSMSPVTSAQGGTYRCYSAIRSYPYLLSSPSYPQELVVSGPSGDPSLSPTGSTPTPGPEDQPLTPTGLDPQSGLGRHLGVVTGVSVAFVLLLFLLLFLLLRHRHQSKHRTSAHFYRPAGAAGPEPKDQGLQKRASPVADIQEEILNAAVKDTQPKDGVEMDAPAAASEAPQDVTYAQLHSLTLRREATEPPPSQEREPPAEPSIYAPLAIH
UniProt P67775: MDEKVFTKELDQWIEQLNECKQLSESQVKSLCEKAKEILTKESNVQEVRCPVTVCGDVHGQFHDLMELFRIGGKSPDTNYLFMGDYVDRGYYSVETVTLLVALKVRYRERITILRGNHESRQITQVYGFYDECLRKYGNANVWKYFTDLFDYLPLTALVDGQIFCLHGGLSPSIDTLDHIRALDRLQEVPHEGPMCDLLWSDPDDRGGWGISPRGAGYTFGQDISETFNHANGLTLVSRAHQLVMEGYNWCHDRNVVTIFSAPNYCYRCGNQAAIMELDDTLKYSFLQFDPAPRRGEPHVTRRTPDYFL
UniProt P61586: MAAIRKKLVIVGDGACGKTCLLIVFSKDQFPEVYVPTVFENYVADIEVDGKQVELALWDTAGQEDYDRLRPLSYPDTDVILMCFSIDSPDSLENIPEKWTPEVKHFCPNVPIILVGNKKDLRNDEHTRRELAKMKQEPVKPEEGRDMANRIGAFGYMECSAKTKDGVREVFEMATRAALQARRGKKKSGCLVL

Results are given in words; binding and its absence hold for the method and conditions named. Some binding calls cover weakened binding; strength is not graded here.

The target in experiment [1] is Ece1-V peptide, Gal4 activation domain fusion (Candida albicans) (UniProt Q07730). Description: two-hybrid; HT-eY2H screen: Ece1 peptides as Gal4 activation domain fusions (AD-Y, called bait, yeast Y8930), human ORFeome clones (n = 13,761) as DB-X fusions (called prey, yeast Y8800); mated and spotted on SC-Leu-Trp, SC-Leu-Trp-His and SC-Leu-His+CHX; positive = activation of GAL1::HIS3 in a CHX-sensitive manner; clones confirmed by Sanger sequencing.

For experiment [2], the target named is Ece1-VIII peptide, Gal4 activation domain fusion (Candida albicans) (UniProt Q07730). Described as above.
The target of experiment [3] is Ece1-IV peptide, Gal4 activation domain fusion (Candida albicans) (UniProt Q07730). Described as above.
In experiment [4] the target is Ece1-VI peptide, Gal4 activation domain fusion (Candida albicans) (UniProt Q07730). The description is as above.
For experiment [5], the target named is Ece1-II peptide, Gal4 activation domain fusion (Candida albicans) (UniProt Q07730). The description is as above.
Experiment [6] addresses Ece1-VII peptide, Gal4 activation domain fusion (Candida albicans) (UniProt Q07730). The description is as above.
The target of experiment [7] is Recombinant Cyclin H (CCNH) protein with a C-HIS tag (human) (UniProt P51946). Nature of the experiment: SPR; Biacore 8K, PBST running buffer, other conditions as for candidalysin (CCNH amine-coupled on a CM5 chip, 25 °C, 30 μL/min); Ece1-II, Ece1-IV, Ece1-V or human cathelicidin as analyte; both purified.

For the substance “ACD, DB fusion (human ORFeome clone) (from UniProt Q96AP0 1-458)”, the binding result is “binds” in experiment [1]; “no binding” in experiment [2]; “binds” in experiment [3]; “no binding” in experiment [4]; “binds” in experiment [5]; “binds” in experiment [6].

Take “Ece1-II, synthetic peptide (from UniProt Q07730 32-61)”: the binding entry in experiment [7] was “binds”.

For “Ece1-IV, synthetic peptide (from UniProt Q07730 94-126)”, the binding entry in experiment [7] is listed as “binds”.

In the case of “Ece1-V, synthetic peptide (from UniProt Q07730 127-160)”, the binding entry in experiment [7] was “binds”.

As for “LILRA1, DB fusion (human ORFeome clone) (from UniProt O75019 1-489)”, the binding result in experiment [1] and in experiment [5] was “binds” throughout.

For the substance “LILRA2, DB fusion (human ORFeome clone) (from UniProt Q8N149 1-483)”, the binding entry in experiment [1] and in experiment [5] was “binds” each time.

On to “LILRA3, DB fusion (human ORFeome clone) (from UniProt Q8N6C8 1-439)”, for which the binding result in experiment [1] and in experiment [5] was “binds” each time.

Turning to “LILRB1, DB fusion (human ORFeome clone) (from UniProt Q8NHL6 1-650)”, the binding entry in experiment [1] and in experiment [5] was “binds” in each case.

On to “LILRB2, DB fusion (human ORFeome clone) (from UniProt Q8N423 1-597)”, for which the binding entry in experiment [1] and in experiment [5] was “binds” throughout.

“LILRB3, DB fusion (human ORFeome clone) (from UniProt O75022 1-631)”: the binding entry in experiment [1] and in experiment [5] was “binds” in each case.

Consider “LILRB4, DB fusion (human ORFeome clone) (from UniProt Q8NHJ6 1-448)”, for which the binding result in experiment [1] and in experiment [5] was “binds” throughout.

On to “LILRB5, DB fusion (human ORFeome clone) (from UniProt O75023 1-590)”, for which the binding entry in experiment [1] and in experiment [5] was “binds” in each case.

For the substance “PPP2CA, DB fusion (human ORFeome clone) (from UniProt P67775 1-309)”, the binding entry in experiment [1], in experiment [3] and in experiment [5] was “binds” each time.

Take “RHOA, DB fusion (human ORFeome clone) (from UniProt P61586 1-193)”: the binding result in experiment [2], in experiment [4] and in experiment [5] was “binds” each time.
